Data on two molecules can be found in publication PMC3098143.

Assay [1] deals with T1, FLAG-TPR1 (tetratricopeptide repeat 1) (UniProt Q99614).
T1 sequence: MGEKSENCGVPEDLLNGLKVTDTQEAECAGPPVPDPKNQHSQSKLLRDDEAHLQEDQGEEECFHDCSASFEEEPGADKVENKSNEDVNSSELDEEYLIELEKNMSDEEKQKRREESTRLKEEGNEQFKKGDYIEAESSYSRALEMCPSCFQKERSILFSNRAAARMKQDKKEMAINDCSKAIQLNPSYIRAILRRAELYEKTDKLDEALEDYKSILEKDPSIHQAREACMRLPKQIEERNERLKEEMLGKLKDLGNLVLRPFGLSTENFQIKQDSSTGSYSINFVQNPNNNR
As to the kind of experiment: co-IP; HEK 293 co-transfected with Gα and FLAG-TPR1 cDNAs; cells treated with 0.5 mM dithiobis[succinimidylpropionate] before lysis in RIPA buffer; lysate on anti-FLAG affinity agarose gel at 4°C overnight; blot with anti-Gα16 or anti-Gαz.

Assay [2] addresses Gα16QL (constitutively active Gα16) (human). Kind of assay: co-IP; reverse direction, same lysates: IP with anti-Gα16 or anti-Gαz antiserum at 4°C overnight and protein G-agarose; blot with anti-FLAG.

No constants are given. Whether binding was seen depends on the method and setting. In cells and extracts the contact can be indirect. Binding calls can cover weak binding; strength is not graded here. Sequences can lack the tags named with a protein.

As for “Gα16QL (constitutively active Gα16) (human)”, the binding entry in assay [1] is “binds”.

B1: FLAG-TPR1 (tetratricopeptide repeat 1) (protein, UniProt Q99614 1-292)
chain: T1 sequence
Regarding B1, the binding entry in assay [2] is reported as “binds”.
